Results are given in words; binding and its absence hold for the method and conditions named. In cells and extracts the contact can be indirect. Here binding means that the protein was enriched with, or labelled near, the bait; the list need not be complete. Where a sequence is shown, tags or fusion partners need not be part of it.

Sequences of proteins named here, by UniProt entry; tags and fusion partners are left off. A change or cut given only in a name is not applied to a line headed by its entry. Residues count along the entry.
UniProt P63104: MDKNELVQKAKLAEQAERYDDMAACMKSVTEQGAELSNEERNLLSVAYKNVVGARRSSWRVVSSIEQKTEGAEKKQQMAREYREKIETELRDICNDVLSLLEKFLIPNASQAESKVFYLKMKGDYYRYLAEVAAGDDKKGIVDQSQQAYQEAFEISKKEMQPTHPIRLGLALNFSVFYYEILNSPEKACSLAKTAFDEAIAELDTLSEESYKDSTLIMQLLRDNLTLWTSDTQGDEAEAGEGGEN
UniProt P06396, residues 28-782: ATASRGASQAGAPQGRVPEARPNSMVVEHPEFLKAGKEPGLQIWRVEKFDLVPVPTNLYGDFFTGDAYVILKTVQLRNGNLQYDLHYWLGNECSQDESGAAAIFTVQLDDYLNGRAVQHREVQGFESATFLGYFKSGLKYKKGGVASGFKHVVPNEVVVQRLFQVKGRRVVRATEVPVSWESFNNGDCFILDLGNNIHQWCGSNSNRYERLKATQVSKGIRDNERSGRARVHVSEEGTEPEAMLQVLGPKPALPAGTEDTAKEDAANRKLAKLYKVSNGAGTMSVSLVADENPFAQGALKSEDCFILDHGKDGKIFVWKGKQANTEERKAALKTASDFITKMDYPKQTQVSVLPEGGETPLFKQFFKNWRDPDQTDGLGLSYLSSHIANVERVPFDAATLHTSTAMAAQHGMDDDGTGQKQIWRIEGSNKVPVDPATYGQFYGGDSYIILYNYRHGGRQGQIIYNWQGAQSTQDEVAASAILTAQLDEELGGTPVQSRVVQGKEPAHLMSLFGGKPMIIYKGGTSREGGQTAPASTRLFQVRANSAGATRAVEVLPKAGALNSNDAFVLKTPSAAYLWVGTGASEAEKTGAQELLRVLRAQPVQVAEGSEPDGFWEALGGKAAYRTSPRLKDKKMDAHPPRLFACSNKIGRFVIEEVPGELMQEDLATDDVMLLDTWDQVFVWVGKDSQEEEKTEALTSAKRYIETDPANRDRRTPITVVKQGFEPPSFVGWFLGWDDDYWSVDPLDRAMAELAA
UniProt P83916: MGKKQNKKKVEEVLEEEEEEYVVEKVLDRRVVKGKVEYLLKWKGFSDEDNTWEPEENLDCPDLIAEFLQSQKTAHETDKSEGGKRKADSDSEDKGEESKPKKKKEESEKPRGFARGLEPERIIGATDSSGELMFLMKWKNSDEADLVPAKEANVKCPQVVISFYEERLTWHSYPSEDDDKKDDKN
UniProt Q13185: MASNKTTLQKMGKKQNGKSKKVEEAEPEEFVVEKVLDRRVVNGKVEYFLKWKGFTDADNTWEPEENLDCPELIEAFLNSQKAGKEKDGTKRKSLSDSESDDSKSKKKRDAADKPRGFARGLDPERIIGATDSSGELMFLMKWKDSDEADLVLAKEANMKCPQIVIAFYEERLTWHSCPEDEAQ
UniProt Q16531: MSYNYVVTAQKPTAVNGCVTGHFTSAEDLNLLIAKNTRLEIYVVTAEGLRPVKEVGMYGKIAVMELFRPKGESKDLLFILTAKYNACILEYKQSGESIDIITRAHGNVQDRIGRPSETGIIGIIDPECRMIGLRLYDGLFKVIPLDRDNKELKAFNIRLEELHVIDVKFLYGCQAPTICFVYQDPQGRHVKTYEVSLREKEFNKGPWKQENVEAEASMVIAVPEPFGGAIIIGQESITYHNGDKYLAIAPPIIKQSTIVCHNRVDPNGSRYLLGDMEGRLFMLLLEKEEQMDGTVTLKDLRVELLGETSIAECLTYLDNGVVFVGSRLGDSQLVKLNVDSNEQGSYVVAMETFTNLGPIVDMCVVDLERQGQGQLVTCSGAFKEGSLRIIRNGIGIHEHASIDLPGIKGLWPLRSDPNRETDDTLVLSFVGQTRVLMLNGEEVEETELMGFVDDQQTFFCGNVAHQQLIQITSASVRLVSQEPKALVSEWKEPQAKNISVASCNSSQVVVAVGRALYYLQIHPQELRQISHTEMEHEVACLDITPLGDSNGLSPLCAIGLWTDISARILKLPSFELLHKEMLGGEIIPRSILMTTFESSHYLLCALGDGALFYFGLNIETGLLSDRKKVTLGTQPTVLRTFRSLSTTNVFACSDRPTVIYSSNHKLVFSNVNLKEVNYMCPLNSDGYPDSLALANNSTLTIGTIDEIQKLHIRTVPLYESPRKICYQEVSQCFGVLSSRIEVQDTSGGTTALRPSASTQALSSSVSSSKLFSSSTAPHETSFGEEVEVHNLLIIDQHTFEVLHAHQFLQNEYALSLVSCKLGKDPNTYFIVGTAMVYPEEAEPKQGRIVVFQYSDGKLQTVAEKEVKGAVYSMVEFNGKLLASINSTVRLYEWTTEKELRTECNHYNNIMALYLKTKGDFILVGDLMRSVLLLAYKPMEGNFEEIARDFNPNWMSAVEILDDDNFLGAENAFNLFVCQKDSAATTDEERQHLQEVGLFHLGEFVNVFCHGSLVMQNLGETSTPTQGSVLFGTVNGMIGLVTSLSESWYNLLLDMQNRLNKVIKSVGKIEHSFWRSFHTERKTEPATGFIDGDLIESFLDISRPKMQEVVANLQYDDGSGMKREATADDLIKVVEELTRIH
UniProt O75369: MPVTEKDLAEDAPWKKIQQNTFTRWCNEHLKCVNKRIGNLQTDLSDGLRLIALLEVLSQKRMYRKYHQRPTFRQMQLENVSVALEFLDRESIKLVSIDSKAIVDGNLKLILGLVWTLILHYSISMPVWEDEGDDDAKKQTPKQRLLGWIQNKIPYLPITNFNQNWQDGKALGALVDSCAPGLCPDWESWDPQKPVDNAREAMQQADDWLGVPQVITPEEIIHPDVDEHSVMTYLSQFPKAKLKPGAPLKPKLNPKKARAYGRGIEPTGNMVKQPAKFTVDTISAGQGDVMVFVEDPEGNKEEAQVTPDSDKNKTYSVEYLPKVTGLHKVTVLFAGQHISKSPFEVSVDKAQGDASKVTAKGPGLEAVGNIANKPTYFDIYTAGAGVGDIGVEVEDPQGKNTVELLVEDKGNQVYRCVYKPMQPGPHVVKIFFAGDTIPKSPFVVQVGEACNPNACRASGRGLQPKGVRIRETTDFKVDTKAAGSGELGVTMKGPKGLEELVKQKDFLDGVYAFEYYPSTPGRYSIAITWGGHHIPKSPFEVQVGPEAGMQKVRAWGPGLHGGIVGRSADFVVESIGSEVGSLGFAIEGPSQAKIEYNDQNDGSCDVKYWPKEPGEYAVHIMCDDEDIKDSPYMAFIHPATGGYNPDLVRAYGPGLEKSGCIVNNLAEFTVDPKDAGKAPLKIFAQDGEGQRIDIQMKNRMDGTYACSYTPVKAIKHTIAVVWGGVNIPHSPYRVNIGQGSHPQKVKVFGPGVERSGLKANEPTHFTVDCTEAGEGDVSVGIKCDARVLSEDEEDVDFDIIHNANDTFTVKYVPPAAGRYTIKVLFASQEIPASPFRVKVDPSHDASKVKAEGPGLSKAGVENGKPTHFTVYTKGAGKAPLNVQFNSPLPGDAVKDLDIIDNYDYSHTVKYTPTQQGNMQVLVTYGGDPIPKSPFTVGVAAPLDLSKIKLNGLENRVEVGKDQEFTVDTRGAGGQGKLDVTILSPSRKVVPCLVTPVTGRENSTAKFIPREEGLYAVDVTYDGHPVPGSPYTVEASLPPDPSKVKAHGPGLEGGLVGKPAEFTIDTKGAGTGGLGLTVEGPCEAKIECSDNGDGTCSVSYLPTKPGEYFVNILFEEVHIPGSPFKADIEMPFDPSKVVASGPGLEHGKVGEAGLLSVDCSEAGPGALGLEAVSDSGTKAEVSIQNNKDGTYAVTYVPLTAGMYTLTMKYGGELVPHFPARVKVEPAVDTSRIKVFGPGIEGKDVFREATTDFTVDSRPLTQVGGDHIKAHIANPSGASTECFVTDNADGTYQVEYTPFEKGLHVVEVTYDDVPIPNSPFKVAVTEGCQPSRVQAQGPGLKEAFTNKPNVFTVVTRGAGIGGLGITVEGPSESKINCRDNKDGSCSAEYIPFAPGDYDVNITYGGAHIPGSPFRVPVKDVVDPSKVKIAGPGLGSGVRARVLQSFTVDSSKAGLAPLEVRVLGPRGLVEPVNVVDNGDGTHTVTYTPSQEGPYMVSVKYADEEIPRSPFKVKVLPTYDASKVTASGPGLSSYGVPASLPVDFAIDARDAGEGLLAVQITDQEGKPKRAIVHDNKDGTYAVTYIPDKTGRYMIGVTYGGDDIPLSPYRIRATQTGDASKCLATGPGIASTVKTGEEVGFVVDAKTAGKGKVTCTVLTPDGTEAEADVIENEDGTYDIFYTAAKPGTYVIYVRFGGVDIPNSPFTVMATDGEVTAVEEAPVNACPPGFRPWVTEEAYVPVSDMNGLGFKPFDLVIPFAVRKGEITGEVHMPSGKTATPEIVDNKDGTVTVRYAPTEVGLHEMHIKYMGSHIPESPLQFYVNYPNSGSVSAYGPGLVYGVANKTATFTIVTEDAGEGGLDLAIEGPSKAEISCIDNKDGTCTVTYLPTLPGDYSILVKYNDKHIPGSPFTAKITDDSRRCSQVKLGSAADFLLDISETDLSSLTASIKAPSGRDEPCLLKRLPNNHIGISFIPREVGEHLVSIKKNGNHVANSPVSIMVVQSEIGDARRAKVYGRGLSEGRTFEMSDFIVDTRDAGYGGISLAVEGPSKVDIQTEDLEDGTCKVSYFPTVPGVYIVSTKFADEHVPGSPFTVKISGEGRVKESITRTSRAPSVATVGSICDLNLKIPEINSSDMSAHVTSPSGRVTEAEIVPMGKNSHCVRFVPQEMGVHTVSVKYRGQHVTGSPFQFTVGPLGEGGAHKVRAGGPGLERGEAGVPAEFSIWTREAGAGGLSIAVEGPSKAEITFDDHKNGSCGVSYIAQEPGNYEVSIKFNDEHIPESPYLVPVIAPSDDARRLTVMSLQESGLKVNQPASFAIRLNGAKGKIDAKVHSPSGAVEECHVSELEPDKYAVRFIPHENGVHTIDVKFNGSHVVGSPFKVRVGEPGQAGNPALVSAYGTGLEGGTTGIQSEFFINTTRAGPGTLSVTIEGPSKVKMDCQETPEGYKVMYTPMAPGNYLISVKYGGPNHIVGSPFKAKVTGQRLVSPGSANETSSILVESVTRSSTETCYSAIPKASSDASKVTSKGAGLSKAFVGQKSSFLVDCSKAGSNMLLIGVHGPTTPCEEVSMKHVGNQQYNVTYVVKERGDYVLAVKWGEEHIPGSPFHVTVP
UniProt P04792: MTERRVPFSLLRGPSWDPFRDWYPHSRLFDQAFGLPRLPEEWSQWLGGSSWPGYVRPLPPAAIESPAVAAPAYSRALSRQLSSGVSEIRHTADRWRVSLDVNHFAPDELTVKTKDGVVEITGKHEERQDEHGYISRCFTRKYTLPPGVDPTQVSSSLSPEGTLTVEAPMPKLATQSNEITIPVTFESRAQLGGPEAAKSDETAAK
UniProt P17096: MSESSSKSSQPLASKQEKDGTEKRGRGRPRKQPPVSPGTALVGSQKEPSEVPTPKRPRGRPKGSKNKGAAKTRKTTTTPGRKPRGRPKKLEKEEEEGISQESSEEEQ
UniProt Q7Z2W4: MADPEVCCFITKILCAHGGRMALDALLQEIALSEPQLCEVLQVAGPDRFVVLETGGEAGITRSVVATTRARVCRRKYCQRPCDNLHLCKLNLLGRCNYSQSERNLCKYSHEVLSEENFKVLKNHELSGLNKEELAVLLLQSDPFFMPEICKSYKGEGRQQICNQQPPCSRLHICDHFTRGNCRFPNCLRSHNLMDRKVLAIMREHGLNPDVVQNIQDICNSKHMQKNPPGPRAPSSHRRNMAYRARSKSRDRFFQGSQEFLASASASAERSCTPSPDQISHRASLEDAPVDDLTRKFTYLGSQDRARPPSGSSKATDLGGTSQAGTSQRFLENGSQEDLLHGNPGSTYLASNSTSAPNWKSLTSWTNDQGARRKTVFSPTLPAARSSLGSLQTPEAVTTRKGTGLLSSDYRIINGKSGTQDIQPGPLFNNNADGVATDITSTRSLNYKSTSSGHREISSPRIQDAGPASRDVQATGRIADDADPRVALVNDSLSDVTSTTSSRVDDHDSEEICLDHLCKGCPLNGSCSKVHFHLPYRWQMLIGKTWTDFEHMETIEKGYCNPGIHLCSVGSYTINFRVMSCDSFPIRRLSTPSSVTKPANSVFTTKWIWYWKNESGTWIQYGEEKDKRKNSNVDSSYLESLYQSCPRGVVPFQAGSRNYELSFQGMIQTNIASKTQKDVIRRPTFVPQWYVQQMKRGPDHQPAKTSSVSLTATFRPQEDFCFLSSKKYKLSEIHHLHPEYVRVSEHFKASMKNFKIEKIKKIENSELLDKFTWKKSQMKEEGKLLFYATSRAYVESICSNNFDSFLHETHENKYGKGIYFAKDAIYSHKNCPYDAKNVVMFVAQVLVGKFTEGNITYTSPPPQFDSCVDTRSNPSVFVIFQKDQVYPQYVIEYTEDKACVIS

The test concerns the target T1, GST-HO-1 (heme oxygenase 1 fused to GST) (human) (UniProt P09601).
T1 sequence: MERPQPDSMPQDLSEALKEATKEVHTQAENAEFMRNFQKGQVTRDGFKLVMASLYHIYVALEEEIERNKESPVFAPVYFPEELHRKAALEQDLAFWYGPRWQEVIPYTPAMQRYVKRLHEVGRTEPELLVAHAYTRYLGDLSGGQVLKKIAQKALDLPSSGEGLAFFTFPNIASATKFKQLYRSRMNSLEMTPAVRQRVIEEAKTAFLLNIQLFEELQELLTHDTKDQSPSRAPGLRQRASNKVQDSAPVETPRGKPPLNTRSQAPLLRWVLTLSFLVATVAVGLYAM
Nature of the test: affinity purification with mass spectrometry; GST-HO-1 from transfected PC3 cells treated with H2O2 (200 µM), extracts in 20 mM Tris, 150 mM NaCl, 5 mM MgCl2, 0.5% NP40, pH 7.5, held on glutathione-agarose beads 2 h at 4 °C; LC ESI-MS/MS; only proteins differential against GST empty vector kept.

With “14-3-3 zeta delta-like protein (14-3-3ζ/δ) (from UniProt P63104 1-245)”, the binding entry is given as “binds”.

Consider Gelsolin (from UniProt P06396 28-782), for which the binding result is “binds”.

As for chromobox 1 (from UniProt P83916 1-185), the binding result is on record as “binds”.

In the case of chromobox 3 (from UniProt Q13185 1-183), the binding entry is on record as “binds”.

Regarding “damage specific DNA binding protein 1 (from UniProt Q16531 1-1140)”, the binding result was “binds”.

Consider filamin B (from UniProt O75369 1-2602), for which the binding result is on record as “binds”.

With “heat shock protein family B (small) member 1 (from UniProt P04792 1-205)”, the binding result is on record as “binds”.

For the molecule “high mobility group AT-hook 1 (from UniProt P17096 1-107)”, the binding entry is on record as “binds”.

Take “nucleophosmin 1 (from UniProt P06748 1-294)”: the binding entry is listed as “binds”.

“tripartite motif-containing 28 (from UniProt Q13263 1-835)”: the binding entry was “binds”.

In the case of “zinc finger CCCH-type containing, antiviral 1 (from UniProt Q7Z2W4 1-902)”, the binding entry is on record as “binds”.

B1: matrin 3 (protein, UniProt P43243 1-847)
chain: MSKSFQQSSLSRDSQGHGRDLSAAGIGLLAAATQSLSMPASLGRMNQGTARLASLMNLGMSSSLNQQGAHSALSSASTSSHNLQSIFNIGSRGPLPLSSQHRGDADQASNILASFGLSARDLDELSRYPEDKITPENLPQILLQLKRRRTEEGPTLSYGRDGRSATREPPYRVPRDDWEEKRHFRRDSFDDRGPSLNPVLDYDHGSRSQESGYYDRMDYEDDRLRDGERCRDDSFFGETSHNYHKFDSEYERMGRGPGPLQERSLFEKKRGAPPSSNIEDFHGLLPKGYPHLCSICDLPVHSNKEWSQHINGASHSRRCQLLLEIYPEWNPDNDTGHTMGDPFMLQQSTNPAPGILGPPPPSFHLGGPAVGPRGNLGAGNGNLQGPRHMQKGRVETSRVVHIMDFQRGKNLRYQLLQLVEPFGVISNHLILNKINEAFIEMATTEDAQAAVDYYTTTPALVFGKPVRVHLSQKYKRIKKPEGKPDQKFDQKQELGRVIHLSNLPHSGYSDSAVLKLAEPYGKIKNYILMRMKSQAFIEMETREDAMAMVDHCLKKALWFQGRCVKVDLSEKYKKLVLRIPNRGIDLLKKDKSRKRSYSPDGKESPSDKKSKTDGSQKTESSTEGKEQEEKSGEDGEKDTKDDQTEQEPNMLLESEDELLVDEEEAAALLESGSSVGDETDLANLGDVASDGKKEPSDKAVKKDGSASAAAKKKLKKVDKIEELDQENEAALENGIKNEENTEPGAESSENADDPNKDTSENADGQSDENKDDYTIPDEYRIGPYQPNVPVGIDYVIPKTGFYCKLCSLFYTNEEVAKNTHCSSLPHYQKLKKFLNKLAEERRQKKET
Take B1: the binding entry is “binds”.

B2: testin (protein, UniProt Q9UGI8 1-421)
chain: MDLENKVKKMGLGHEQGFGAPCLKCKEKCEGFELHFWRKICRNCKCGQEEHDVLLSNEEDRKVGKLFEDTKYTTLIAKLKSDGIPMYKRNVMILTNPVAAKKNVSINTVTYEWAPPVQNQALARQYMQMLPKEKQPVAGSEGAQYRKKQLAKQLPAHDQDPSKCHELSPREVKEMEQFVKKYKSEALGVGDVKLPCEMDAQGPKQMNIPGGDRSTPAAVGAMEDKSAEHKRTQYSCYCCKLSMKEGDPAIYAERAGYDKLWHPACFVCSTCHELLVDMIYFWKNEKLYCGRHYCDSEKPRCAGCDELIFSNEYTQAENQNWHLKHFCCFDCDSILAGEIYVMVNDKPVCKPCYVKNHAVVCQGCHNAIDPEVQRVTYNNFSWHASTECFLCSCCSKCLIGQKFMPVEGMVFCSVECKKRMS
As to B2, the binding result is recorded as “binds”.

B3: splicing factor rich in serine and arginine 3 (protein, UniProt P84103 1-164)
chain: MHRDSCPLDCKVYVGNLGNNGNKTELERAFGYYGPLRSVWVARNPPGFAFVEFEDPRDAADAVRELDGRTLCGCRVRVELSNGEKRSRNRGPPPSWGRRPRDDYRRRSPPPRRRSPRRRSFSRSRSRSLSRDRRRERSLSRERNHKPSRSFSRSRSRSRSNERK
As for B3, the binding result is on record as “binds”.

Source of the values: PMC8868058.
